Measured values from patent US20040101888A1, “Vector system used in screening active substances” (Max-Delbruck-Centrum Fur Molekulare Medizin, priority 2001, published 2004).
At least one compound was matched to its structure with a doubt left.

Test system: TCRS containing NIH-3T3 fibroblasts cells
Test: Detection of cellular translational control activities by TCRS reporter in drug-treated cells
Format: cell-based
Settings: TCRS containing NIH-3T3 fibroblasts treated with drug
Excerpt: TCRS functions in cell lines. To examine the applicability of the TCRS in vertebrate cells we introduced the improved TCRS-vector into fibroblasts by transient transfection. […] Importantly, removal of the regulatory uORF by […] point mutation of its translation initiation site results in loss of translational controlled SR protein expression. Accordingly, the TCRS can be used to screen for drugs or to monitor pharmacological effects in tissue culture.
To examine the potential of the TCRS for detection of changes in translation control activities by external supplied drugs, we treated the TCRS containing NIH-3T3 fibroblasts cells with aminopurine and rapamycin, respectively.
Treatment with translational active drugs, such as rapamycin or aminopurine, result in differential activation of distinct translation control pathways, causing a shift in reporter protein expression. Shift in reporter expression was also observed with co-transfected expression vectors encoding eucaryotic translation initiation factors eIF2or eIF4E, or mutants thereof. Reporter protein expression shifts were dependent on an intact uORF.

SMILES: CO[C@H]1C[C@@H]2CC[C@@H](C)[C@@](O)(O2)C(=O)C(=O)N2CCCC[C@H]2C(=O)O[C@H]([C@H](C)C[C@@H]2CC[C@@H](O)[C@H](OC)C2)CC(=O)[C@H](C)/C=C(\C)[C@@H](O)[C@@H](OC)C(=O)[C@H](C)C[C@H](C)/C=C/C=C/C=C/1C [rapamycin]
- changes of the reporter peptide levels (PR and SR reporter protein expression from TCRS): Differential changes of the peptide levels were observed
